These are yes or no findings as the source states them, for the method shown.
Key:
[1] = target: Proliferating Cell Nuclear Antigen (PCNA), wild type (yeast) (UniProt P15873); test: condition: only ATP omitted, PCNA not loaded onto DNA; SEC; as the PCNA-CAF-1 SEC experiment with nicked plasmid but ATP omitted, so that PCNA is not loaded onto DNA (Figure 1C); both purified
[2] = target: Proliferating Cell Nuclear Antigen (PCNA), wild type (yeast) (UniProt P15873); test: SEC; as the PCNA-CAF-1 SEC experiment but in the absence of DNA (Supplementary Figures S1E, S3B); both purified

By UniProt entry, the sequences of proteins in these tests, tags left out.
UniProt P15873: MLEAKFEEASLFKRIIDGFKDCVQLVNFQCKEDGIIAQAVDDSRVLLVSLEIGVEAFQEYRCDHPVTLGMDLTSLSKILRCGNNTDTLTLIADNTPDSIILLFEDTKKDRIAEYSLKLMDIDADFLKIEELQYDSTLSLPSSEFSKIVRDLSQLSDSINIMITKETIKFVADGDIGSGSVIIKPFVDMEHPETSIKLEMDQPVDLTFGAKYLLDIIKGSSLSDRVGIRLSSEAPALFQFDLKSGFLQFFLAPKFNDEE

binding [1]: no binding
Substance: Chromatin Assembly Factor-1 (CAF-1), wild type (from UniProt Q12495 1-606; Q04199 1-468; P13712 1-422) (complex)
binding [2]: no binding (condition: in the absence of DNA)
